Measured values as given in patent US20210290648A1, “Potentiation of B-Lactam Antibiotics and B-Lactam/B-Lactamase Inhibitor Combinations Against Multidrug and Extensively Drug-Resistant Pseudomonas Aeruginosa Using Non-Ribosomal Tobramycin-Cyclam Conjugates” (University of Manitoba, priority 2018, published 2021).
Some entries share one result that the patent states for a list of compounds.

Tested on: Galleria mellonella larvae
Assay: Galleria mellonella tolerability study
Details: each compound alone
Method: In vitro and in vivo discordances have been observed in antimicrobial chemotherapy, thus, therapeutic efficacy may not necessarily be reliably extrapolated based on in vitro data alone. […] Colistin (100 mg/kg), an antibiotic well known for its toxicity towards eukaryotes, served as a positive control for this experiment while PBS served as negative control. […] Survivability was scored for a total of 4 days.
In vivo larvae-infection model. In vivo synergistic effects were determined using Galleria mellonella infection model, as previously described (20). Briefly, worms were purchased from The Worm Lady® Live Feeder (ON, Canada), stored in their natural habitat at 16° C., and used within 10 days of delivery. The worms (average weight of 250 mg) were used for tolerability and efficacy studies. Tolerability study was performed by injecting 10 μL of antimicrobial agents only at concentrations equivalent to 100 mg/kg or 200 mg/kg. The worms (ten in each group) were incubated at 37° C. and monitored for 96 h. […] Overnight grown culture of respective MDR P. aeruginosa isolate was standardized to 0.5 McFarland standard and diluted in PBS to a final concentration of […]. 10 μL of this solution (5 CFU) was injected into each worm and incubated for 3 h at 37° C. […] Worms treated with 10 μL PBS or high concentrations of test antibiotics served as negative and positive control, respectively. The worms were incubated at 37° C. in Petri dishes lined with filter paper and scored for survivability every 6 h for up to 48 h. This experiment was repeated to give a total of thirty worms (n=30) in each case. Survival data curves were plotted using Kaplan-Meier survival analysis.

Compound	dose tolerated by larvae
C[C@H]1[C@H](NC(=O)/C(=N\OC(C)(C)C(=O)O)c2csc(N)n2)C(=O)N1S(=O)(=O)O [Aztreonam]	up to 200 mg/kg
5-O-(Octylcyclam)-tobramycin.9TFA [Compound 2]	up to 200 mg/kg
CC(C)(O/N=C(\C(=O)N[C@@H]1C(=O)N2C(C(=O)[O-])=C(C[n+]3ccccc3)CS[C@H]12)c1csc(N)n1)C(=O)O [Ceftazidime]	up to 200 mg/kg
